Among all 1,200 compounds or so, fewer than 10 were called active. The call rests on the fitted dose curve; in most records, active means well fitted curve in the direction sought with a large enough effect; inconclusive means small, poorly fitted or top-dose-only effect, or another doubt; inactive means no such curve, though single readings can be large or run the other way. This is one part of the list.
Biological target: Transcriptional regulator ERG (Homo sapiens) (UniProt P11308)
Test: qHTS for Small Molecule Inhibitors of the ERG Ets/DNA interaction: TR assay against cherry picks; further: % of control where 0% means no effect
Conditions: ERG Ets domain-DNA fluorescence polarization, Texas red probe; at 154 µM (top of the series)
In short: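 Polarization read sequentially for fluorescein (ex 480/em 535 nm) and Texas red (ex 555/em 632 nm) probes, 5 nM and 100 nM solutions, displaced from His-ERG Ets domain (1 uM solution), pH 7.5 Tris/KCl/EDTA/DTT buffer.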

Protein sequences, listed by entry. Tags and fused reporters are not part of them. Lines headed by an entry give the natural chain unless they say otherwise; changes in a name come on top.
UniProt P11308: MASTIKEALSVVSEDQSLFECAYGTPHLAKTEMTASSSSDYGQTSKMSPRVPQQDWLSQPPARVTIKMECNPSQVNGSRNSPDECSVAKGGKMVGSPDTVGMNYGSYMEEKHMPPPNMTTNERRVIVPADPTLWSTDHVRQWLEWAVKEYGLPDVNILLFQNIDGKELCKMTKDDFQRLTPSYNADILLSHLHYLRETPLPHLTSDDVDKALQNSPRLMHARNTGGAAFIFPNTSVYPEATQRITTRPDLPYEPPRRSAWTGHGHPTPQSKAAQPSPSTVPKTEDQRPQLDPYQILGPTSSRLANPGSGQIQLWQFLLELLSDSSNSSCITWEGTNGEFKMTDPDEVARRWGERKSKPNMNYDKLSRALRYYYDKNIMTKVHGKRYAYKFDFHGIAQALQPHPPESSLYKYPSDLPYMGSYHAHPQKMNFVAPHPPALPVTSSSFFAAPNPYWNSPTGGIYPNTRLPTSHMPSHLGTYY

Activity change, negative = inhibition, inactive:
COC(=O)c1sccc1NC(=O)c1ccccc1Br 3.3%
CNC(=O)C(=O)NCCN1CCN(C(=O)c2ccc([N+](=O)[O-])cc2)CC1 6.81%
Cn1c(SCc2nnc(-c3ccccc3)o2)nc2ccccc21 2.98%
CCN(CC)CCN1C(=O)C(O)=C(C(C)=O)C1c1ccccc1[N+](=O)[O-] (centres undefined) 14.1%
CCCC(=O)Nc1ccc(C(=O)Nc2nnc(COCC)s2)cc1 -14.2%
CCc1ccc(-c2cc(C(F)(F)F)n3nc(C(=O)Nc4cnn(Cc5ccc(C)cc5)c4)cc3n2)s1 -2.57%
CCN(CC)c1ccc2cc(-c3nc(-c4cc(OC)c(OC)c(OC)c4)no3)c(=O)oc2c1 9.56%
O=[N+]([O-])c1ncccc1OCc1ccc(-c2ccccc2)cc1 2.88%
CCOc1ccc(-c2cc(C(=O)OC)[nH]n2)cc1 -15.6%
CCCN(C(=O)c1nn(-c2ccc(C)cc2)c(=O)c2c1c1ccccc1n2C)c1ccccc1C -5.76%
Cc1ccc2c(c1)N(CC(=O)NC1CCCc3ccccc31)C(=O)CO2 (centres undefined) -9.33%
CCOc1cc(NC(=S)NCC(C)C)c(OCC)cc1NC(=O)c1ccco1 -6.3%
Cc1ccc(N(CC(=O)NC2CCCC2)C(=O)CNC(=O)c2cccs2)c(C)c1 -7.05%
CC1(C)CC(=O)C(C(O)c2ccccc2)C(C)(C)N1 (centres undefined) -0.45%
CCOc1ccccc1N1CCN(CC(=O)c2c(N)n(C)c(=O)n(C)c2=O)CC1 -9.83%
COc1ccc(CCNC(=O)CSc2n[nH]c(N)n2)cc1 1.38%
CCOC(=O)c1ccc(NC(=O)c2cn(-c3ccccc3)nc2-c2ccc(OC)c(OC)c2)cc1 -9.46%
CC(=O)C1=C(O)C(=O)N(c2nccs2)C1c1ccccc1 (centres undefined) 6.49%
CCOC(=O)C1=C(C)N(C[C@@H]2CC[C@@H](Cc3ccc(-c4ccccc4)cc3)O2)C(=O)NC1c1ccc([N+](=O)[O-])cc1 (some centres undefined) 0.997%
CCOC(=O)c1c(-c2ccccc2)csc1NC(=O)c1cc(-c2ccc(C)c(F)c2)on1 -12.7%
COCC(=O)NC1CCN(S(=O)(=O)c2cccc(C(C)=O)c2)CC1 -1.12%
CCOc1ccc(NS(=O)(=O)c2ccc(NC(C)=O)c(OC)c2)cc1 -4.62%
CC(C)N1CCN(Cc2ccc(Sc3nncn3C)o2)CC1CCO (centres undefined) 6.4%
Cn1c(CO)cnc1SCc1ccc(F)cc1 18.1%

For reference, part of the list above.
Activity change, negative = inhibition, inactive:
CCOc1ccc(NS(=O)(=O)c2ccc(NC(C)=O)c(OC)c2)cc1 -4.62%
CC(C)N1CCN(Cc2ccc(Sc3nncn3C)o2)CC1CCO (centres undefined) 6.4%

From PubChem BioAssay AID651803 (National Center for Advancing Translational Sciences (NCATS), 2012)
